Test results as given in patent US7238682B1, “Methods and compositions for degradation and/or inhibition of HER-family tyrosine kinases” (Sloan-Kettering Institute for Cancer Research, priority 1999, dated 2007).
For at least one compound, name, drawing or mass did not settle the structure.

System: HER2
Experiment: Induction of HER2 degradation in MCF-7 cells (immunoblotting)
Type: cell-based, human
Details: 1 μM, 3 to 24 hours, Western blot
Experimental: The human breast cancer cell lines MCF-7 and SKBR-3 were obtained from ATCC (Rockville, Md.), and maintained in DME/F12 (1:1) supplemented with 10% heat-inactivated fetal bovine serum (Gemini Bioproducts), 2 mM glutamine, and 50 units/ml each of penicillin and streptomycin, in a humidified 5% CO2/air atmosphere at 37° C.
Polyclonal antibodies against HER2 (c-18), Raf-1 (c-12), and P13 kinase (p85) (Z-8) were purchased from Santa Cruz Biotechnology, Inc. A monoclonal antibody against estrogen receptor (clone H-151) was obtained from StressGen Biotechnology Corp. A polyclonal antibody against the β-subunit of IGF-I receptor was kindly provided by Dr. L-H, Wang (Mt. Sinai Medical Center, New York).
After exposure, cells were washed twice with ice-cold phosphate-buffered saline (PBS), collected by scraping and transferred into microcentrifuge tubes. […] Protein concentration in each sample was determined using the BCA kit (Pierce) according to the manufacture's instructions. […] Samples were subjected to SDS-PAGE, electrotransferred to nitrocellulose membranes, detected using the ECL kit (Amersham) according to the manufacturer's protocol, and quantitated using the Gel Doc 1000 (Bio-Rad).

Question: For `COC1=C2C[C@@H](C)C[C@H](OC)[C@H](O)[C@@H](C)/C=C(\C)[C@H](OC(N)=O)[C@@H](OC)/C=C\C=C(/C)C(=O)NC(=CC1=O)C2=O` [GM, Geldanamycin, reference compound], which “HER2 / HER-kinase expression over time” value is on record?
Answer: causes the degradation over time
